These are yes or no findings as the source states them, for the method shown. Some entries that bind do so weakly or less than the wild type.
Biological target: T1, DOC1-related protein (human, UniProt Q4L180 241-1128)
T1 sequence: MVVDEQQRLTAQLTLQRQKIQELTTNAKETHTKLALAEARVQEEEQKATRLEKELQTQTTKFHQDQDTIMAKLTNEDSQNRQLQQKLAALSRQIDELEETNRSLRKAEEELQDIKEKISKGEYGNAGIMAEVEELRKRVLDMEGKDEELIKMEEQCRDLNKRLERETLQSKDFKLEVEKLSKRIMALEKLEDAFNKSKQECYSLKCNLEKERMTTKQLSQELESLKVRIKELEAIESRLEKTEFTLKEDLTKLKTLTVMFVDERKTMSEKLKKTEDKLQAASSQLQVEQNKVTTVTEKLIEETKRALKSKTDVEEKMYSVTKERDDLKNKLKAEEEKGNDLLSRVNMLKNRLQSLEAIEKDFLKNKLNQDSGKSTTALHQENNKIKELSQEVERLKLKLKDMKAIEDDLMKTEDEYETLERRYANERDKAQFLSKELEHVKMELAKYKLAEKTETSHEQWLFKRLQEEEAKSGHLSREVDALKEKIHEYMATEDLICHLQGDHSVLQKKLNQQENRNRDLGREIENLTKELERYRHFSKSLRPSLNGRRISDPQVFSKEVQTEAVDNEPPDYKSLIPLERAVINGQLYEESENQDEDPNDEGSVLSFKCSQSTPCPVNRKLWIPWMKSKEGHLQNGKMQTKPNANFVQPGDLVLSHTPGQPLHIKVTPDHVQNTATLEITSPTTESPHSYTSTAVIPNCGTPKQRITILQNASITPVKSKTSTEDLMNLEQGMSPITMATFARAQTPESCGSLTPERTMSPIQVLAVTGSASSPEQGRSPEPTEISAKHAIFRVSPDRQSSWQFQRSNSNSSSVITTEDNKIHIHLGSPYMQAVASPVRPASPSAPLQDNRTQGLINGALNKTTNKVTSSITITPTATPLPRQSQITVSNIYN
Assay: yeast two-hybrid

B1: DOC1-related protein (protein)
chain: MVVDEQQRLTAQLTLQRQKIQELTTNAKETHTKLALAEARVQEEEQKATRLEKELQTQTTKFHQDQDTIMAKLTNEDSQNRQLQQKLAALSRQIDELEETNRSLRKAEEELQDIKEKISKGEYGNAGIMAEVEELRKRVLDMEGKDEELIKMEEQCRDLNKRLERETLQSKDFKLEVEKLSKRIMALEKLEDAFNKSKQECYSLKCNLEKERMTTKQLSQELESLKVRIKELEAIESRLEKTEFTLKEDLTKLKTLTVMFVDERKTMSEKLKKTEDKLQAASSQLQVEQNKVTTVTEKLIEETKRALKSKTDVEEKMYSVTKERDDLKNKLKAEEEKGNDLLSRVNMLKNRLQSLEAIEKDFLKNKLNQDSGKSTTALHQENNKIKELSQEVERLKLKLKDMKAIEDDLMKTEDEYETLERRYANERDKAQFLSKELEHVKMELAKYKLAEKTETSHEQWLFKRLQEEEAKSGHLSREVDALKEKIHEYMATEDLICHLQGDHSVLQKKLNQQENRNRDLGREIENLTKELERYRHFSKSLRPSLNGRRISDPQVFSKEVQTEAVDNEPPDYKSLIPLERAVINGQLYEESENQDEDPNDEGSVLSFKCSQSTPCPVNRKLWIPWMKSKEGHLQNGKMQTKPNANFVQPGDLVLSHTPGQPLHIKVTPDHVQNTATLEITSPTTESPHSYTSTAVIPNCGTPKQRITILQNASITPVKSKTSTEDLMNLEQGMSPITMATFARAQTPESCGSLTPERTMSPIQVLAVTGSASSPEQGRSPEPTEISAKHAIFRVSPDRQSSWQFQRSNSNSSSVITTEDNKIHIHLGSPYMQAVASPVRPASPSAPLQDNRTQGLINGALNKTTNKVTSSITITPTATPLPRQSQITVSNIYN
B1 was tested, and the binding was “binds”.

Source: patent US20030108554A1 (published 2003)
